The values that follow come from article PMC7819943, “Rice protein-binding microarrays: a tool to detect cis-acting elements near promoter regions in rice”.

Some of the results follow.

For the test, the target named is T1, OsSMF1 (Oryza sativa, UniProt Q6ZLB0 1-436).
T1 sequence: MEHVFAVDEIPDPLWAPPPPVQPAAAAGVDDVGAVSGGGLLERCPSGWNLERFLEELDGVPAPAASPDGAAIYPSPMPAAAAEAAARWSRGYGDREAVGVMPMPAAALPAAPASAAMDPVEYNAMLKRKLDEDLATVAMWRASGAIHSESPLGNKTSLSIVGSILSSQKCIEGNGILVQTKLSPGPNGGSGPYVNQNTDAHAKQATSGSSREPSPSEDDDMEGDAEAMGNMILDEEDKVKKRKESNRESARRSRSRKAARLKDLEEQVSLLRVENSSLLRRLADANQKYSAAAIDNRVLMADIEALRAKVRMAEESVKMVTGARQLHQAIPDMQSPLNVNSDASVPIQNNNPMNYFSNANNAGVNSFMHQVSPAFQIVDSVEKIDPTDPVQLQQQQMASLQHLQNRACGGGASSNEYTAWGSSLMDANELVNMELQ
The test is described as follows: protein-binding microarray (RPBM); PBS, 2% BSA, 51.3 ng/ul salmon testes DNA, 50 uM zinc acetate, 200 nM TF, 25 C, 1 h; high values mean tight binding. The settings on record: protein: recombinant; tags: N-terminal polyhistidine and DsRed monomer fusion (pET32a); chain copies: 2; label: CyDye5-dUTP incorporated in the synthesized complementary strand; 3' TTTTT single-stranded linker to array surface; dsDNA, one strand shown. The gist of the method:
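Polyhistidine-tagged DsRed fusions of transcription factors, joined at the N-terminus, were expressed in E. coli BL21-CodonPlus and isolated on Ni–NTA. They were incubated at 200 nM for 1 h at 25 °C on a custom Agilent array, double-stranded and BSA-blocked, in PBS with 2% BSA, salmon testes DNA and 50 µM zinc acetate. The binding signal is per-feature fluorescence intensity (arbitrary units) read on an Axon 4000B scanner after washing.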
With “GCCGAGCCCTCCACGTCGCCCACTCGTCTCTTCCCCTTCCCGGAGTCACCTAGTGCAG”, the binding signal was 8240 fluorescence intensity (a.u.).
For “GGAAATACGGTGTGAGTGGAATAGACGTGTGTTTCGAAATCGGAGTCACCTAGTGCAG”, the binding signal was 3220 fluorescence intensity (a.u.).
To “TGCTCGTGTCCACTATTTCCATGACGCCAGCGACATGCATCGGAGTCACCTAGTGCAG” belongs 4730 fluorescence intensity (a.u.); to “CACTCAAAATCTCTTTCGTGTCCACCTCACCTTGCACCACCGGAGTCACCTAGTGCAG”, 4870 fluorescence intensity (a.u.).
For “TGAAGTGCGCTGCTGTTGACACTTGACAGGTAGCTCGGCCCGGAGTCACCTAGTGCAG” the value was 3180 fluorescence intensity (a.u.).
To “CCAAGCAGTTGGTGGCTCTGTTACGTACTACATGCGCGCGCGGAGTCACCTAGTGCAG” belongs 3280 fluorescence intensity (a.u.); to “TGCTTGATACTACTACGGAGAAAACAACGCATGTTTAAACCGGAGTCACCTAGTGCAG”, 29800 fluorescence intensity (a.u.); to “TTAGTATGTTAGTATGTGTTTTATCCAACACTACAAAATGCGGAGTCACCTAGTGCAG”, 12900 fluorescence intensity (a.u.).
For “TTGGCGAATGCTGCCAACGATCCTGACGTTGTTGACCTGACGGAGTCACCTAGTGCAG”, the binding signal was 4900 fluorescence intensity (a.u.).
To “AAATCACACCCACGCTCGTGCCCATTGGGTCGGGTATCCGCGGAGTCACCTAGTGCAG” belongs 3550 fluorescence intensity (a.u.).
For “GTGTTTAATGATATCGAATGACACCATGTCTAGATAAATCCGGAGTCACCTAGTGCAG” the value was 3230 fluorescence intensity (a.u.); for “GACACGGACAAGTGACGTGGCGATCCCTTGTCCCCACCGACGGAGTCACCTAGTGCAG”, 22700 fluorescence intensity (a.u.).
Take “CCGCACTGCAAAGATCGCGCCACATCAAGATCCAACTCCCCGGAGTCACCTAGTGCAG”: the binding signal is 4410 fluorescence intensity (a.u.).
For “GGGTGTATCTGCAAATATACCACCAGCCCAGCCTGGAGCACGGAGTCACCTAGTGCAG” the value was 3260 fluorescence intensity (a.u.); for “ACGTTTTGTACTTGGTGTGACTCCTAACTGCCTACTAAGCCGGAGTCACCTAGTGCAG”, 3200 fluorescence intensity (a.u.); for “CTTCTCTATCAGGAGCAGAGATGCACGTGGACATGGAGAGCGGAGTCACCTAGTGCAG”, 3290 fluorescence intensity (a.u.).
For the sequence “GAGGAGTGGGCCGGCCAGCACGTCCTGGTGGTGCCCCATGCGGAGTCACCTAGTGCAG”, the binding signal is 3880 fluorescence intensity (a.u.).
Take “ATTGTACACACACTGAAATTGCAATAAACAGAATGTTTCCCGGAGTCACCTAGTGCAG”: the binding signal was 13400 fluorescence intensity (a.u.).
Consider “CGCACTCACCCCGTCACCCGACGCCGCCGACTCCTCCCTCCGGAGTCACCTAGTGCAG”, for which the binding signal was 4220 fluorescence intensity (a.u.).
To “ACCGCTCAACGTCATCAACAAATATGTAGCGTCCGATTTCCGGAGTCACCTAGTGCAG” belongs 6400 fluorescence intensity (a.u.).
To “GCTATATGAGCCATCGCGTCCGCCCGTGCACCAGCACCAGCGGAGTCACCTAGTGCAG” belongs 3190 fluorescence intensity (a.u.).
For “ACATGTGAGACAATAGAAAGATAGACCACGTATTACTCACCGGAGTCACCTAGTGCAG” the value was 3570 fluorescence intensity (a.u.); for “ACTGTAATGGCGCGTACGTGTAATGTTGCGATGAGAGCTCCGGAGTCACCTAGTGCAG”, 5300 fluorescence intensity (a.u.); for “TCGAATCTTTTGGTCATAGTGACTGTCAAGTAGTGATCAACGGAGTCACCTAGTGCAG”, 3710 fluorescence intensity (a.u.).
On to “AGCGTGCCTCAACTTCTCCAACTCCGCGTGGCTGCTCGCCCGGAGTCACCTAGTGCAG”, for which the binding signal was 4440 fluorescence intensity (a.u.).
For “ATGCCACGTCATCAAGCCAGCCTCTCCTGTCCTCTCCTTTCGGAGTCACCTAGTGCAG”, the binding signal is 26400 fluorescence intensity (a.u.).
Turning to “GACTAACAAAATCGTTGAAACTTGCGAAGTTTCTTTTGATCGGAGTCACCTAGTGCAG”, the binding signal is 64700 fluorescence intensity (a.u.).
For “AATCAATACAAAGTCTGAAAGCCATTATGGTGGCAGTAATCGGAGTCACCTAGTGCAG” the value was 61300 fluorescence intensity (a.u.); for “GTTGCATGGTCCTGTTTTGAATTATTCCACGTATGATAAGCGGAGTCACCTAGTGCAG”, 7720 fluorescence intensity (a.u.); for “TACGTAGGTGCCACGTCGGTCAAACCTGGGCTCAATAGTTCGGAGTCACCTAGTGCAG”, 13900 fluorescence intensity (a.u.).
For “GTGATCTTTCCACATACAGAGAGAGAGAGAGCTTGGGATTCGGAGTCACCTAGTGCAG” the value was 40900 fluorescence intensity (a.u.).
As for “ATGAGAGATAAGTAGATGACACATTCACAGTTGCTATAGTCGGAGTCACCTAGTGCAG”, the binding signal was 4040 fluorescence intensity (a.u.).
For “TTTGTAATAGCATTGGATTCCTGGTTGCATGCGCTGGCTGCGGAGTCACCTAGTGCAG” the value was 3630 fluorescence intensity (a.u.); for “AGGCTATCCTTAGGCTGTATTTAGTTCCACGTCAAAATTGCGGAGTCACCTAGTGCAG”, 3190 fluorescence intensity (a.u.); for “AGGCGGTTTTGGCTGATGTGGCGTCTACGTGGCTTGTTTGCGGAGTCACCTAGTGCAG”, 25300 fluorescence intensity (a.u.).
To “GGCGCATGTTTAATCGACAGCTCGGCACGAGCAACAAGATCGGAGTCACCTAGTGCAG” belongs 3670 fluorescence intensity (a.u.); to “CTCCCGCCGTGGCACGCGCGACGTGCCGCGTGCGCACAGGCGGAGTCACCTAGTGCAG”, 46800 fluorescence intensity (a.u.).
Consider “CGGTGGCAGCCCGGCGGCGTGGAGCGCGCTGCTTAGCGCGCGGAGTCACCTAGTGCAG”, for which the binding signal is 53600 fluorescence intensity (a.u.).
Turning to “CTTCAACTCAAATGTCATCCGATGTCTGTTTCGTACCCGGCGGAGTCACCTAGTGCAG”, the binding signal is 3850 fluorescence intensity (a.u.).
For “TGACATTCAGCTTTGAATGAAATATCAGTCATGGAGGGAGCGGAGTCACCTAGTGCAG” the value was 36900 fluorescence intensity (a.u.); for “GAAGTCCAAGCGCCTGGAACTTGTGTGTCAGTGTGTGAATCGGAGTCACCTAGTGCAG”, 4010 fluorescence intensity (a.u.).
On to “TAATACATGGTCCCACATGTCATACACATATTGTGTCTTGCGGAGTCACCTAGTGCAG”, for which the binding signal was 3280 fluorescence intensity (a.u.).
